At least one peptide structure holds a part that was inferred or is arguable (an end, a ring closure or a residue). Some entries share one result that the patent states for a list of compounds. Positions of bridges follow the written chain, without caps; N, C: chain ends. Residues, ends and D or L forms follow the SMILES beside them. Chains are numbered I, II in the order given. *: point of attachment. Chenodeoxycholyl = C[C@H](CCC(=O)*)[C@H]1CC[C@H]2[C@@H]3[C@H](O)C[C@@H]4C[C@H](O)CC[C@]4(C)[C@H]3CC[C@]12C; Cholyl = C[C@H](CCC(=O)*)[C@H]1CC[C@H]2[C@@H]3[C@H](O)C[C@@H]4C[C@H](O)CC[C@]4(C)[C@H]3C[C@H](O)[C@]12C
What was measured:
[1] = test system: mesenchymal stem cells (MSCs); experiment: Apoptosis analysis by flow cytometry on normal cells; assay type: cell-based; details: different concentrations
Experimental: (§1) Apoptosis analysis was conducted by flow-cytometry. Briefly, target cells were first treated then washed. Treated cells were then re-suspended in Annexin-V staining buffer prior to staining with Annexin-V and propidium iodine (PI). Fifteen minutes later, cells were washed prior to analysis using BD FACS™ Diva on CANTOII™.

[2] = test system: wild-type MSC and B3Z reporter system; experiment: Cross presentation (antigen presentation) with MSC and B3Z reporter system; assay type: cell-based; details: 20 μM, vs freshly prepared CA-C-hnRNPA1 monomer
EL4 lymphoma cells = experiment: Apoptosis analysis by flow cytometry (Annexin-V/PI); assay type: cell-based; details: for cells in which apoptosis was induced: lower tested dose, 48 μM
Experimental: as §1

EL4 tumor cells = experiment: RNA sequencing and gene set enrichment analysis; assay type: cell-based, mouse; details: for expression of DNA repair genes: CA-C-SV40 190 μM, (CDCA-C-SV40)2 6.4 μM
EL4 cells = experiment: Assessment of immunogenic cell death (HMGB1, ATP, calreticulin); assay type: cell-based

| Compound | concentration at which cytotoxic effect was observed [1] [µM] | antigen presentation (cross presentation activity) [2] | cells in which apoptosis was induced (EL4 lymphoma cells) | expression of DNA repair genes (EL4 tumor cells) | further results |
| --- | --- | --- | --- | --- | --- |
| CSCC[C@H](NC(=O)[C@@H]1CCCN1C(=O)CNC(=O)[C@H](Cc1ccccc1)NC(=O)[C@H](CC(N)=O)NC(=O)[C@H](CO)NC(=O)[C@H](CSSC[C@H](NC(=O)CC[C@@H](C)[C@H]1CC[C@H]2[C@@H]3[C@H](O)C[C@@H]4C[C@H](O)CC[C@]4(C)[C@H]3C[C@H](O)[C@]12C)C(=O)N[C@@H](CO)C(=O)N[C@@H](CC(N)=O)C(=O)N[C@@H](Cc1ccccc1)C(=O)NCC(=O)N1CCC[C@H]1C(=O)N[C@@H](CCSC)C(=O)N[C@@H](CCCCN)C(=O)NCC(=O)NCC(=O)N[C@@H](CC(N)=O)C(=O)N[C@@H](Cc1ccccc1)C(=O)NCC(=O)NCC(=O)N[C@@H](CCCNC(=N)N)C(=O)N[C@@H](CO)C(=O)N[C@@H](CO)C(=O)NCC(=O)N1CCC[C@H]1C(=O)N[C@@H](Cc1ccc(O)cc1)C(=O)O)NC(=O)CC[C@@H](C)[C@H]1CC[C@H]2[C@@H]3[C@H](O)C[C@@H]4C[C@H](O)CC[C@]4(C)[C@H]3C[C@H](O)[C@]12C)C(=O)N[C@@H](CCCCN)C(=O)NCC(=O)NCC(=O)N[C@@H](CC(N)=O)C(=O)N[C@@H](Cc1ccccc1)C(=O)NCC(=O)NCC(=O)N[C@@H](CCCNC(=N)N)C(=O)N[C@@H](CO)C(=O)N[C@@H](CO)C(=O)NCC(=O)N1CCC[C@H]1C(=O)N[C@@H](Cc1ccc(O)cc1)C(=O)O [(CA-C-hnRNPA1)2] (I: Cholyl-CSNFGPMKGGNFGGRSSGPY-OH / II: Cholyl-CSNFGPMKGGNFGGRSSGPY-OH; disulfide I:1-II:1) | ≤ 5 | comparable antigen presentation activity | – | – | – |
| CC(C)[C@H](NC(=O)[C@H](CCCCN)NC(=O)[C@H](CCCNC(=N)N)NC(=O)[C@H](CCCCN)NC(=O)[C@H](CCCCN)NC(=O)[C@H](CCCCN)NC(=O)[C@@H]1CCCN1C(=O)CNC(=O)[C@H](Cc1ccc(O)cc1)NC(=O)CNC(=O)[C@H](CSSC[C@H](NC(=O)CC[C@@H](C)[C@H]1CC[C@H]2[C@@H]3[C@H](O)C[C@@H]4C[C@H](O)CC[C@]4(C)[C@H]3CC[C@]12C)C(=O)NCC(=O)N[C@@H](Cc1ccc(O)cc1)C(=O)NCC(=O)N1CCC[C@H]1C(=O)N[C@@H](CCCCN)C(=O)N[C@@H](CCCCN)C(=O)N[C@@H](CCCCN)C(=O)N[C@@H](CCCNC(=N)N)C(=O)N[C@@H](CCCCN)C(=O)N[C@H](C(=O)NCC(=O)NCC(=O)O)C(C)C)NC(=O)CC[C@@H](C)[C@H]1CC[C@H]2[C@@H]3[C@H](O)C[C@@H]4C[C@H](O)CC[C@]4(C)[C@H]3CC[C@]12C)C(=O)NCC(=O)NCC(=O)O [(CDCA-C-SV40)2] (I: Chenodeoxycholyl-CGYGPKKKRKVGG-OH / II: Chenodeoxycholyl-CGYGPKKKRKVGG-OH; disulfide I:1-II:1) | – | – | over 99% | significantly decreased expression | TP53-related genes (GSEA) (EL4 tumor cells; 6.4 μM, vs CA-C-SV40 monomer or control): significantly downregulated |
| CSCC[C@H](NC(=O)[C@@H]1CCCN1C(=O)CNC(=O)[C@H](Cc1ccccc1)NC(=O)[C@H](CC(N)=O)NC(=O)[C@H](CO)NC(=O)[C@H](CSSC[C@H](NC(=O)CC[C@@H](C)[C@H]1CC[C@H]2[C@@H]3[C@H](O)C[C@@H]4C[C@H](O)CC[C@]4(C)[C@H]3CC[C@]12C)C(=O)N[C@@H](CO)C(=O)N[C@@H](CC(N)=O)C(=O)N[C@@H](Cc1ccccc1)C(=O)NCC(=O)N1CCC[C@H]1C(=O)N[C@@H](CCSC)C(=O)N[C@@H](CCCCN)C(=O)NCC(=O)NCC(=O)N[C@@H](CC(N)=O)C(=O)N[C@@H](Cc1ccccc1)C(=O)NCC(=O)NCC(=O)N[C@@H](CCCNC(=N)N)C(=O)N[C@@H](CO)C(=O)N[C@@H](CO)C(=O)NCC(=O)N1CCC[C@H]1C(=O)N[C@@H](Cc1ccc(O)cc1)C(=O)O)NC(=O)CC[C@@H](C)[C@H]1CC[C@H]2[C@@H]3[C@H](O)C[C@@H]4C[C@H](O)CC[C@]4(C)[C@H]3CC[C@]12C)C(=O)N[C@@H](CCCCN)C(=O)NCC(=O)NCC(=O)N[C@@H](CC(N)=O)C(=O)N[C@@H](Cc1ccccc1)C(=O)NCC(=O)NCC(=O)N[C@@H](CCCNC(=N)N)C(=O)N[C@@H](CO)C(=O)N[C@@H](CO)C(=O)NCC(=O)N1CCC[C@H]1C(=O)N[C@@H](Cc1ccc(O)cc1)C(=O)O [(CDCA-C-hnRNPA1)2] (I: Chenodeoxycholyl-CSNFGPMKGGNFGGRSSGPY-OH / II: Chenodeoxycholyl-CSNFGPMKGGNFGGRSSGPY-OH; disulfide I:1-II:1) | ≤ 5 | comparable antigen presentation activity | – | – | – |
| CC(C)[C@H](NC(=O)[C@H](CCCCN)NC(=O)[C@H](CCCNC(=N)N)NC(=O)[C@H](CCCCN)NC(=O)[C@H](CCCCN)NC(=O)[C@H](CCCCN)NC(=O)[C@@H]1CCCN1C(=O)CNC(=O)[C@H](Cc1ccc(O)cc1)NC(=O)CNC(=O)[C@H](CS)NC(=O)CC[C@@H](C)[C@H]1CC[C@H]2[C@@H]3[C@H](O)C[C@@H]4C[C@H](O)CC[C@]4(C)[C@H]3C[C@H](O)[C@]12C)C(=O)NCC(=O)NCC(=O)O [CA-C-SV40] (Cholyl-CGYGPKKKRKVGG-OH) | – | – | – | mostly upregulated | HMGB1 protein (Western blot) (EL4 cells; different time points and concentrations): increase expression; calreticulin levels (EL4 cells; over time): increases calreticulin levels over time; cell death through apoptosis (Annexin V staining) (EL4 lymphoma cells; 190 μM): triggers cell death through apoptosis; time at which apoptosis started post-treatment (EL4 lymphoma cells; PI and Annexin-V co-staining): 1 h |
| CC(C)[C@H](NC(=O)[C@H](CCCCN)NC(=O)[C@H](CCCNC(=N)N)NC(=O)[C@H](CCCCN)NC(=O)[C@H](CCCCN)NC(=O)[C@H](CCCCN)NC(=O)[C@@H]1CCCN1C(=O)CNC(=O)[C@H](Cc1ccc(O)cc1)NC(=O)CNC(=O)[C@H](CS)NC(=O)CC[C@@H](C)[C@H]1CC[C@H]2[C@@H]3[C@H](O)C[C@@H]4C[C@H](O)CC[C@]4(C)[C@H]3CC[C@]12C)C(=O)NCC(=O)NCC(=O)O [CDCA-C-SV40] (Chenodeoxycholyl-CGYGPKKKRKVGG-OH) | – | – | over 99% | – | – |

Reference: patent US12233130B2, “Covalently-modified steroid acid-peptides having enhanced stability and/or biological activity” (DEFENCE THERAPEUTICS INC., priority 2022, dated 2025)
